The supplement of paper PMC10849652
This is one part of the list.

By UniProt entry, the sequences of proteins in these tests, tags left out. Where a name states a change or a piece, a line headed by the entry shows the natural chain unless it says otherwise.
UniProt Q8WU58: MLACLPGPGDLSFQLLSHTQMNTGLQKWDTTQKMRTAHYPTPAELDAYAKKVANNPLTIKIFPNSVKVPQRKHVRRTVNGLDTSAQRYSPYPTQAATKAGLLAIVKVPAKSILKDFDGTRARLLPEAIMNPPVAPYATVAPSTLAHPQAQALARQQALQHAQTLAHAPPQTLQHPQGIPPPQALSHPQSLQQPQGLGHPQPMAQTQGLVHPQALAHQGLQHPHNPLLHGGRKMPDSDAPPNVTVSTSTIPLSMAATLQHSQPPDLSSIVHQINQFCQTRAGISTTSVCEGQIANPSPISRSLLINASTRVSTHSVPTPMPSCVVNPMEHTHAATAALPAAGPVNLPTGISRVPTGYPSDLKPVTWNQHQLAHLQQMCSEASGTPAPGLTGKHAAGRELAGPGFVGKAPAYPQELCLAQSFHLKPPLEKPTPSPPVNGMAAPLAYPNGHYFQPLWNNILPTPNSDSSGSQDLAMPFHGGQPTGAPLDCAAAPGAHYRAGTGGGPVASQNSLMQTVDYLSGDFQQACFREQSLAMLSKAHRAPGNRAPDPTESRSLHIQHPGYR
UniProt Q86UY5: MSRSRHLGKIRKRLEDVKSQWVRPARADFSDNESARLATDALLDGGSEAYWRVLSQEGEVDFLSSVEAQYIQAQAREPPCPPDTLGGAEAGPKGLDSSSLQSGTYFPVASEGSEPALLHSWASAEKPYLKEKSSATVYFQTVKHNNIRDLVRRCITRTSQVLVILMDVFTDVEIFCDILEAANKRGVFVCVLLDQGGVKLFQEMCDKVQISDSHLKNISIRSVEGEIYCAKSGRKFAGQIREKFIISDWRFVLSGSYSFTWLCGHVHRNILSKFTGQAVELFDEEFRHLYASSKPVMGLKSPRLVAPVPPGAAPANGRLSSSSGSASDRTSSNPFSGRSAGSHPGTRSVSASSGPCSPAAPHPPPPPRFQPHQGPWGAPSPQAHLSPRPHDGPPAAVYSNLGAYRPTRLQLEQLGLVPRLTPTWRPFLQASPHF
UniProt Q5XKK7: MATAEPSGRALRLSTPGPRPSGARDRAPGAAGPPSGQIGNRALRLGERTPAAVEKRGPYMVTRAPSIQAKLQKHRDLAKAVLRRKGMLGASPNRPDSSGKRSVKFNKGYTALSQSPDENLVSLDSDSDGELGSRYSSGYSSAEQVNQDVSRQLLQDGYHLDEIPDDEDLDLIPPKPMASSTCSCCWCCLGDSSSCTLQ
UniProt Q9H9S5: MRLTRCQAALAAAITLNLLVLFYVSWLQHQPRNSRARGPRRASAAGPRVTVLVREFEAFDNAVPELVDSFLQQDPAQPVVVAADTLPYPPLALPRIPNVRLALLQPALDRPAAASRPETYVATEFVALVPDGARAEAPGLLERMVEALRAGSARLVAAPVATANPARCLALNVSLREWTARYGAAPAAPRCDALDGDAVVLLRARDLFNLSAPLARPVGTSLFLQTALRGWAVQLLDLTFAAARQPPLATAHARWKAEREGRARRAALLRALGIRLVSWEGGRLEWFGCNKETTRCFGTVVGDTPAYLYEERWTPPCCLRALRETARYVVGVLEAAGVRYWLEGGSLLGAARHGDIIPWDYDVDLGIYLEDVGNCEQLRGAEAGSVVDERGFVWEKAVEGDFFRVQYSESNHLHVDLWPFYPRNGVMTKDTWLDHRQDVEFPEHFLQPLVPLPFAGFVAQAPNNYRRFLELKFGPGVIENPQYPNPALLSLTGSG
UniProt Q9NWM8: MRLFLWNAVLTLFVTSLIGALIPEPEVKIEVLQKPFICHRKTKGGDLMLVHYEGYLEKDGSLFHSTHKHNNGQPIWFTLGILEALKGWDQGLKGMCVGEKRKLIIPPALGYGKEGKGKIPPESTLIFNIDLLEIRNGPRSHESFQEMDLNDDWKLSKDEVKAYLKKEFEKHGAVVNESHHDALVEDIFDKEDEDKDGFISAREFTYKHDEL
UniProt Q9NYQ8: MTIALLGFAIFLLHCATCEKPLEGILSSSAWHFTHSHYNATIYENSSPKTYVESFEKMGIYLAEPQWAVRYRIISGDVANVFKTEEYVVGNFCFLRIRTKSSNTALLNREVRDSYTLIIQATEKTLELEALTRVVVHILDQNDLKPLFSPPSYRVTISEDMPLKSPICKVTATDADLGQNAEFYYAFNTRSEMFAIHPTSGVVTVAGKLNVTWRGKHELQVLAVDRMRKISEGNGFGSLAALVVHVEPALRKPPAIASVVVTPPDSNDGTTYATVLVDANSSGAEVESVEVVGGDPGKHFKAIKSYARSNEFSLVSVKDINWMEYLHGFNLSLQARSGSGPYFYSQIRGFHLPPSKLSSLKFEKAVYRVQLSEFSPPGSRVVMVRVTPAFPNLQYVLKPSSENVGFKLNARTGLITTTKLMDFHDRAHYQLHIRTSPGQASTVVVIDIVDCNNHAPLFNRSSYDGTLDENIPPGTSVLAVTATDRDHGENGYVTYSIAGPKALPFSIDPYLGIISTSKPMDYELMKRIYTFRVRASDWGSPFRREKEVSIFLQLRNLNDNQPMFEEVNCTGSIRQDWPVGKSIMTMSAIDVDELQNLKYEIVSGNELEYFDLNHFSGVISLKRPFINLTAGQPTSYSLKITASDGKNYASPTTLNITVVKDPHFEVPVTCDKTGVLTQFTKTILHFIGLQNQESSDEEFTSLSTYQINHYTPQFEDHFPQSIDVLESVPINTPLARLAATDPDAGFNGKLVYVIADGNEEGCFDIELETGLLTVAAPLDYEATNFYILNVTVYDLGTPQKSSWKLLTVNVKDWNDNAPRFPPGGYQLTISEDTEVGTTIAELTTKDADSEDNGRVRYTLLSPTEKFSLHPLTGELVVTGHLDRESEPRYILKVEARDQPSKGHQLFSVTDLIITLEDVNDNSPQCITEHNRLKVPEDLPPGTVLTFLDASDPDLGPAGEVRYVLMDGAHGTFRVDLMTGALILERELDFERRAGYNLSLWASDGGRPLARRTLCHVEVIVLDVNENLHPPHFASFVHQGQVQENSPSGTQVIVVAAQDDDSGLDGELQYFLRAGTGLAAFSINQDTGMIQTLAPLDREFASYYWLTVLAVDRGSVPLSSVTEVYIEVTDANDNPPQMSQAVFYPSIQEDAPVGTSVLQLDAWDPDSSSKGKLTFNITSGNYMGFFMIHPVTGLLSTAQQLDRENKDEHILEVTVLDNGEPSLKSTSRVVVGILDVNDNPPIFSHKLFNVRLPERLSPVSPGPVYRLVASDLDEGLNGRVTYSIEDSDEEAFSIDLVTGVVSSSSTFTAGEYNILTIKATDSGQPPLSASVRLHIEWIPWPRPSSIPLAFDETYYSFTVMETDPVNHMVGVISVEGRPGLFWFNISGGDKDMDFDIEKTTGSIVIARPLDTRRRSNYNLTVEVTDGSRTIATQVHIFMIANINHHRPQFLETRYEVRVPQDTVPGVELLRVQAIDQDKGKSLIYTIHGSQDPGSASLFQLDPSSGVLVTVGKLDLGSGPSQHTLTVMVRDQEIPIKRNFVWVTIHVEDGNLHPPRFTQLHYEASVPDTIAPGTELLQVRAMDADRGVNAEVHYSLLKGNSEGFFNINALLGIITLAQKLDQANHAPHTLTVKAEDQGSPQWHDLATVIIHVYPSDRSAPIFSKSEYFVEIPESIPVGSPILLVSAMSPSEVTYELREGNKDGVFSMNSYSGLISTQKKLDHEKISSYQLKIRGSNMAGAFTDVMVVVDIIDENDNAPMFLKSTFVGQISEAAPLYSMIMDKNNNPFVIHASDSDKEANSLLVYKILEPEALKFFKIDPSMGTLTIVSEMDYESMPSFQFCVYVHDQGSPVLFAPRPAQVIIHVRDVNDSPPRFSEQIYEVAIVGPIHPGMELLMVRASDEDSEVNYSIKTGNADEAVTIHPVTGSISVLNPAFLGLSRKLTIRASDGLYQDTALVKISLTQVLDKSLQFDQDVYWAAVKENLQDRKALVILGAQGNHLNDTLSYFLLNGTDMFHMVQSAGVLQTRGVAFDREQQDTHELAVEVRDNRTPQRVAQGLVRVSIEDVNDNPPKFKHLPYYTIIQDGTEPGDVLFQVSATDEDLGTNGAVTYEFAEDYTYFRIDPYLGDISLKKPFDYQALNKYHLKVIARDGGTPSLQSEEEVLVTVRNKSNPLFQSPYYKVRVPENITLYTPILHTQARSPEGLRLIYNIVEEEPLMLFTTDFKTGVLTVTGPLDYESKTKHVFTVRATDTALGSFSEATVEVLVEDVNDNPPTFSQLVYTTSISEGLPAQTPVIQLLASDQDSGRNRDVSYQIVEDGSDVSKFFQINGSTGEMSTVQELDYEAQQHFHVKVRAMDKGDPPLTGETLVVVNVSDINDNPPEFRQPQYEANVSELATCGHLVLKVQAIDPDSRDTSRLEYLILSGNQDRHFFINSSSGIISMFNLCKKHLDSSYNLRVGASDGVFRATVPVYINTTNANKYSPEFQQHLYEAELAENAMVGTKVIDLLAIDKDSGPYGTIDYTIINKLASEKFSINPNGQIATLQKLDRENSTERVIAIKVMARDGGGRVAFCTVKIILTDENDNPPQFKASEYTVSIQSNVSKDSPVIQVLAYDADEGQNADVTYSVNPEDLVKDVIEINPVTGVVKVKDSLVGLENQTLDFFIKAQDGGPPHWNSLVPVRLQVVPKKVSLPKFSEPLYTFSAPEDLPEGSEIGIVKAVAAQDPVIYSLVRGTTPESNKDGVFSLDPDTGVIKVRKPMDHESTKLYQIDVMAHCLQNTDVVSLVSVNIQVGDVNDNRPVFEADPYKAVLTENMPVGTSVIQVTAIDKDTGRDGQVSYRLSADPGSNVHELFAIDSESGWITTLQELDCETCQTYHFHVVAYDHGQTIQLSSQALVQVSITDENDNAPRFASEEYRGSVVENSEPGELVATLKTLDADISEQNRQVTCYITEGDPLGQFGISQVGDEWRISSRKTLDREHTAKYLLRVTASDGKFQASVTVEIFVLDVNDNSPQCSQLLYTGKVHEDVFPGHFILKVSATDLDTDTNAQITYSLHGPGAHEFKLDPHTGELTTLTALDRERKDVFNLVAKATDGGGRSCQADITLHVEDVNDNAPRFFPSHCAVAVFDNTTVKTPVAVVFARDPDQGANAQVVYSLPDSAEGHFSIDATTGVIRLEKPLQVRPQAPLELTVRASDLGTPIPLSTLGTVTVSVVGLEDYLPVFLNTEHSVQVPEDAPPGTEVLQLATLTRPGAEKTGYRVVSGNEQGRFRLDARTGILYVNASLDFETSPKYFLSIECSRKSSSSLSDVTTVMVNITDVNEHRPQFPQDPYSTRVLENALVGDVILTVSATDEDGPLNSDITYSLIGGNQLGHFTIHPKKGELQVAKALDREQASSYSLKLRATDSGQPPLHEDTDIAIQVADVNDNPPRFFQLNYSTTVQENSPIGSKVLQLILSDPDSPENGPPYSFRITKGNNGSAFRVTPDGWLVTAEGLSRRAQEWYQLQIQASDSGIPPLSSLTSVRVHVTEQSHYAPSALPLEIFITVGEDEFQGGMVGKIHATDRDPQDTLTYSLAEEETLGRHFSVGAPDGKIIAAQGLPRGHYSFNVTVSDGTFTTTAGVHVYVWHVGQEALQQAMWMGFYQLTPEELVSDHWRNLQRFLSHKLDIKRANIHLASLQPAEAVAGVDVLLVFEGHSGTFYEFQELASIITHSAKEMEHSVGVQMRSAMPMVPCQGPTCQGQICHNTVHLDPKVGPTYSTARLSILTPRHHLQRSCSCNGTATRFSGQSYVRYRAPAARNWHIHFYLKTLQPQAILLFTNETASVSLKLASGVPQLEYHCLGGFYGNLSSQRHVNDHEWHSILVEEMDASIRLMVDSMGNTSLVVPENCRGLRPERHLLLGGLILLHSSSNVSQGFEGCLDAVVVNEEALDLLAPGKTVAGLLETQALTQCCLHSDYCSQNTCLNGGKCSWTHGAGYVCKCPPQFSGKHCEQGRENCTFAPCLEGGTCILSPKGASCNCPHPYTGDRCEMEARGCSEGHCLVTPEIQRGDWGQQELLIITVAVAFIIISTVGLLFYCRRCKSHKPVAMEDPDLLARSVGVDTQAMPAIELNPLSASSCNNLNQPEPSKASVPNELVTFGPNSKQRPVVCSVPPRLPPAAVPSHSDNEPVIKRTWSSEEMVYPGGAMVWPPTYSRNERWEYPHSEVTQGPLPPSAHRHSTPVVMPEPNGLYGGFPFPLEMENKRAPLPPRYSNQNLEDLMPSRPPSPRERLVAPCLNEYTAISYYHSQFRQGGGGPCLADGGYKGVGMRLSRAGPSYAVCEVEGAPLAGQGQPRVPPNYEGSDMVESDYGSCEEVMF
UniProt Q9UK22: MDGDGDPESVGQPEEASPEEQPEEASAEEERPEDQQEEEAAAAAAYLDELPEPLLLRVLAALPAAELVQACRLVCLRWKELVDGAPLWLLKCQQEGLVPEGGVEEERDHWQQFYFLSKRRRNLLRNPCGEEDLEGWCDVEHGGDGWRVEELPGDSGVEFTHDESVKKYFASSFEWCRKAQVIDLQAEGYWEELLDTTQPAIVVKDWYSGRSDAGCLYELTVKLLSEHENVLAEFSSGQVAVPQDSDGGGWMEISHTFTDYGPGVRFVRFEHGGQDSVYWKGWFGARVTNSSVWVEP

Compound: COc1cccc2cc(-c3nc([C@H]4CC[C@H](C(=O)O)CC4)n4ncnc(N)c34)[nH]c12
Test: log2 fold change, soluble protein after heating vs DMSO (PISA); higher = thermal stabilisation; K562 cells, 10 uM, 30 min; active = over 0.2 and 3.5 SD of the protein, either way, in both replicates (recomputed)
Method in brief: (§1)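 For each measurement, 10 μM compound was applied for 30 min to K562 cells at 2×10^6 cells/mL. Aliquots were heated for 3 min across 48°C-58°C, pooled, and extracted in PBS with 0.5% NP-40 at 4°C; the supernatant after 21,000xg for 90 min was soluble protein. This was quantified by TMTpro 16plex LC-MS/MS with channel sums equalised, and thermal stability was reported relative to control samples from duplicates, on a log2 fold-change scale.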

Target	log2 fold change
FAM222B (UniProt Q8WU58)	inactive: 0.111
FAM98C (UniProt Q17RN3)	inactive: 0.371
FGB (UniProt P02675)	inactive: -0.05
FAT4 (UniProt Q6V0I7)	inactive: -0.007
FAM83A (UniProt Q86UY5)	inactive: -0.084
FAM53B (UniProt Q14153)	inactive: 0.161
FNIP1 (UniProt Q8TF40)	inactive: 0.053
FAM219B (UniProt Q5XKK7)	inactive: 0.012
FKRP (UniProt Q9H9S5)	inactive: -0.029
FBXO11 isoform 5 (UniProt Q86XK2)	inactive: -0.129
FKBP14 (UniProt Q9NWM8)	inactive: 0.025
FITM2 (UniProt Q8N6M3)	inactive: -0.124
FBXL4 (UniProt Q9UKA2)	inactive: -0.036
FAT2 (UniProt Q9NYQ8)	inactive: -0.024

Compound: CS(=O)(=O)CCNCc1ccc(-c2ccc3ncnc(Nc4ccc(OCc5cccc(F)c5)c(Cl)c4)c3c2)o1 [lapatinib]
Test: as above
Method in brief: as §1

Target	log2 fold change
FAM222B (UniProt Q8WU58)	inactive: -0.044
FAM53C (UniProt Q9NYF3)	inactive: 0.158
FASTKD5 (UniProt Q7L8L6)	inactive: -0.288
FAM83A (UniProt Q86UY5)	inactive: -0.054
FIG4 (UniProt Q92562)	inactive: -0.074
FNIP1 (UniProt Q8TF40)	inactive: 0.059
FAM219B (UniProt Q5XKK7)	inactive: 0.034
FLT1 (UniProt P17948)	inactive: -0.246
FKRP (UniProt Q9H9S5)	inactive: -0.016
FLII isoform 2 (UniProt Q13045)	inactive: 0.036
FBXO11 isoform 5 (UniProt Q86XK2)	inactive: -0.068
FHL1 isoform 4 (UniProt Q13642)	inactive: 0.165
FARP2 (UniProt O94887)	inactive: -0.115
FAM76A isoform 3 (UniProt Q8TAV0)	inactive: -0.015
FKBP14 (UniProt Q9NWM8)	inactive: -0.025
FGFR1OP2 isoform 2 (UniProt Q9NVK5)	inactive: 0.19
FAT2 (UniProt Q9NYQ8)	inactive: -0.089
FGG (UniProt P02679)	inactive: -0.001

Compound: CS(=O)(=O)N1CCN(Cc2cc3nc(-c4cccc5[nH]ncc45)nc(N4CCOCC4)c3s2)CC1 [pictilisib]
Test: as above
Method in brief: as §1

Target	log2 fold change
FAM53C (UniProt Q9NYF3)	inactive: 0.011
FAM98C (UniProt Q17RN3)	inactive: 0.063
FASTKD5 (UniProt Q7L8L6)	inactive: 0.073
FGB (UniProt P02675)	inactive: -0.007
FAT4 (UniProt Q6V0I7)	inactive: 0.115
FAM83A (UniProt Q86UY5)	inactive: -0.293
FNIP1 (UniProt Q8TF40)	inactive: 0.009
FAM219B (UniProt Q5XKK7)	inactive: -0.024
FKRP (UniProt Q9H9S5)	inactive: 0.198
FKBP10 (UniProt Q96AY3)	inactive: 0.046
FBXO2 (UniProt Q9UK22)	inactive: -0.159
FER (UniProt P16591)	inactive: 0.056
FGF17 (UniProt O60258)	inactive: -0.393
FAM76A isoform 3 (UniProt Q8TAV0)	inactive: 0.084
FKBP14 (UniProt Q9NWM8)	inactive: 0.031
FBXL4 (UniProt Q9UKA2)	inactive: -0.122
FAT2 (UniProt Q9NYQ8)	inactive: -0.497
FGG (UniProt P02679)	inactive: -0.367
